The other results are listed elsewhere or left out. Small differences around the control level are noise.
What follows are targets tested with CN[C@@H]1C[C@H]2O[C@@](C)([C@@H]1OC)n1c3ccccc3c3c4c(c5c6ccccc6n2c5c31)C(=O)NC4 [staurosporine] (assay: log2 fold change of tryptic peptide abundance, ligand vs vehicle (limited proteolysis) (log2 ratio); higher = more trypsin-susceptible (destabilized)). Conditions: ligand concentration: 20 uM; sample: K562 cleared lysate; digestion: 4 min, 22 C (HT-PELSA RT4min, Orbitrap Astral).

The chains behind the UniProt entries cited, without tags or fusion partners. Where a name states a change or a piece, a line headed by the entry shows the natural chain unless it says otherwise.
UniProt Q9HCJ0: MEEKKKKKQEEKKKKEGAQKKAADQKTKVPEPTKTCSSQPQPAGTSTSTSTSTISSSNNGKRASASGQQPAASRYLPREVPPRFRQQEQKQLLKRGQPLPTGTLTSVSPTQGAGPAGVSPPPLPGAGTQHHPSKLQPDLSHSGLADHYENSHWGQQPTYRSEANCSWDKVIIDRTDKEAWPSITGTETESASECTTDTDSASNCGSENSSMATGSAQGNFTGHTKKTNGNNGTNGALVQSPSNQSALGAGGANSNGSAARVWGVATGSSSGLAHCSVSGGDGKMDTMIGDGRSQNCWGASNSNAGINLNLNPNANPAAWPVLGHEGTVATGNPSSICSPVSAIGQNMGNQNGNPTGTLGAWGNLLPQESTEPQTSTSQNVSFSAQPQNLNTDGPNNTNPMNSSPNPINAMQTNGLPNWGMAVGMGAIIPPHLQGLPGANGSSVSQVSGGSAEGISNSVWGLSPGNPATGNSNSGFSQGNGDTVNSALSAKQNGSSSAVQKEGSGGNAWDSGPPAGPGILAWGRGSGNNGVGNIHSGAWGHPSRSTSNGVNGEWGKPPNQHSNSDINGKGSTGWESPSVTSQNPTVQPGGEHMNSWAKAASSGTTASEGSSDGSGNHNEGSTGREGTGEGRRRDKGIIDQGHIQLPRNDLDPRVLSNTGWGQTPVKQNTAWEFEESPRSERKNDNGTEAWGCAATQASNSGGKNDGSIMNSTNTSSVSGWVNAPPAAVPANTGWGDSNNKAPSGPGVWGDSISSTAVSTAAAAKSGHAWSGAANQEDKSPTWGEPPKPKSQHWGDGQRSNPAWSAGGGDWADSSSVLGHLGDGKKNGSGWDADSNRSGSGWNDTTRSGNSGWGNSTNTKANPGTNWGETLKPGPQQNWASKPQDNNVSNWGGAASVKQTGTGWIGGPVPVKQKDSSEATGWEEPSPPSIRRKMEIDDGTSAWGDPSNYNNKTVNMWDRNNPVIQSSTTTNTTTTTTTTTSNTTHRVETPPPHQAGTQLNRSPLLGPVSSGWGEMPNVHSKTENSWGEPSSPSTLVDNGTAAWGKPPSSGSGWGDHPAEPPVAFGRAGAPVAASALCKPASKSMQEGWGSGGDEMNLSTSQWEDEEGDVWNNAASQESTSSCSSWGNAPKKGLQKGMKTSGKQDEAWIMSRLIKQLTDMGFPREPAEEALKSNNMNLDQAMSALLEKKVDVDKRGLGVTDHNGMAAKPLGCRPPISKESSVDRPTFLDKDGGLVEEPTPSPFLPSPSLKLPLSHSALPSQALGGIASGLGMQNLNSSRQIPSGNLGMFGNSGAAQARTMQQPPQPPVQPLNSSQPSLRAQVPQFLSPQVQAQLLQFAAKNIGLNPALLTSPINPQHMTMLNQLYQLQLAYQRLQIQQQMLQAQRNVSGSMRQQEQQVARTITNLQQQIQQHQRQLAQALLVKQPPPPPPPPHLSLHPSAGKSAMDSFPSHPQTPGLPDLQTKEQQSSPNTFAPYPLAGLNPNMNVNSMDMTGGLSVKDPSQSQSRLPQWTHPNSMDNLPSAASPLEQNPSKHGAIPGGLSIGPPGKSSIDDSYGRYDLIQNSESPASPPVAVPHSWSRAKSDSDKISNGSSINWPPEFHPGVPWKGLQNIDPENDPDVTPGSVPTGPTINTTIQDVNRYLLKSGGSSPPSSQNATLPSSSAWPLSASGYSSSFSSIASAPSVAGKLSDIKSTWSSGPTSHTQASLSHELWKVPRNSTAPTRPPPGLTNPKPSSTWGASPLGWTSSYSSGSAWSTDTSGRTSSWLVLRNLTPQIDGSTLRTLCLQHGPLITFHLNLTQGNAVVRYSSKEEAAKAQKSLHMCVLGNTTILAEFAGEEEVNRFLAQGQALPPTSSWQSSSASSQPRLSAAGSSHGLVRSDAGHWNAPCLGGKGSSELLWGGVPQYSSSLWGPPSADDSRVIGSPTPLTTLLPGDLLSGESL
UniProt Q9HC77: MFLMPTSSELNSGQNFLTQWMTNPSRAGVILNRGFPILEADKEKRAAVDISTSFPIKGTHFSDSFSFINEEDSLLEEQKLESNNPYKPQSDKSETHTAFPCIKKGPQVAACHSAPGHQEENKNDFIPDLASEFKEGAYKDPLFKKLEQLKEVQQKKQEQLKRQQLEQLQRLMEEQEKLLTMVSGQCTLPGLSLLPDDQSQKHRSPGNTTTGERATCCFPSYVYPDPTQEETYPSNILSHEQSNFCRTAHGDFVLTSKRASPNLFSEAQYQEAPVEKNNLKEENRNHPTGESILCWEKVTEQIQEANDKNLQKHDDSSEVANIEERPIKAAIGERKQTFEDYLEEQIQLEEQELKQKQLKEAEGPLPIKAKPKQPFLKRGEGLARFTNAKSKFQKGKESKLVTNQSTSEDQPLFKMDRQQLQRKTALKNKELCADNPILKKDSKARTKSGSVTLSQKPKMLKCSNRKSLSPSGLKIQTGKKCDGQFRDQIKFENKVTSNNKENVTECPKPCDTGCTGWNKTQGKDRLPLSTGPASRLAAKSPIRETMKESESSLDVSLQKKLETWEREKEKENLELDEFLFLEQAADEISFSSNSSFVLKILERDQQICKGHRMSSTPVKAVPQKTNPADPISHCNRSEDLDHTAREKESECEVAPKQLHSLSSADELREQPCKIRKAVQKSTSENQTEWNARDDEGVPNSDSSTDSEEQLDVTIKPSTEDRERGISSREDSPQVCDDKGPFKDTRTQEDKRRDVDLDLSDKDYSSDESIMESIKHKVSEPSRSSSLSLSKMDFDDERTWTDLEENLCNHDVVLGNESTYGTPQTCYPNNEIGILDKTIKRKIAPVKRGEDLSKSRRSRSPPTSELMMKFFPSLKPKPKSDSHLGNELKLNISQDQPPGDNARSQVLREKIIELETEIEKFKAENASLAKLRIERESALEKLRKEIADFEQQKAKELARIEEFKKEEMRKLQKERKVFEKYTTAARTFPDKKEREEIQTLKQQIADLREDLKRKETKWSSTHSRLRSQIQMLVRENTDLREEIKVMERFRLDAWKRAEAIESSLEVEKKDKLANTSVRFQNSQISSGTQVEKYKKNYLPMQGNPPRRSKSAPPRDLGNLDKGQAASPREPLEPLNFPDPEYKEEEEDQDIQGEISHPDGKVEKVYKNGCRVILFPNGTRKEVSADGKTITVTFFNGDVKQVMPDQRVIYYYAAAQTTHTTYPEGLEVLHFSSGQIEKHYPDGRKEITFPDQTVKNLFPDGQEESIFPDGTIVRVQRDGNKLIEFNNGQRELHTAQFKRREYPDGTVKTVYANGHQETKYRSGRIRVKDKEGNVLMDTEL
UniProt Q9HCM7, whole entry: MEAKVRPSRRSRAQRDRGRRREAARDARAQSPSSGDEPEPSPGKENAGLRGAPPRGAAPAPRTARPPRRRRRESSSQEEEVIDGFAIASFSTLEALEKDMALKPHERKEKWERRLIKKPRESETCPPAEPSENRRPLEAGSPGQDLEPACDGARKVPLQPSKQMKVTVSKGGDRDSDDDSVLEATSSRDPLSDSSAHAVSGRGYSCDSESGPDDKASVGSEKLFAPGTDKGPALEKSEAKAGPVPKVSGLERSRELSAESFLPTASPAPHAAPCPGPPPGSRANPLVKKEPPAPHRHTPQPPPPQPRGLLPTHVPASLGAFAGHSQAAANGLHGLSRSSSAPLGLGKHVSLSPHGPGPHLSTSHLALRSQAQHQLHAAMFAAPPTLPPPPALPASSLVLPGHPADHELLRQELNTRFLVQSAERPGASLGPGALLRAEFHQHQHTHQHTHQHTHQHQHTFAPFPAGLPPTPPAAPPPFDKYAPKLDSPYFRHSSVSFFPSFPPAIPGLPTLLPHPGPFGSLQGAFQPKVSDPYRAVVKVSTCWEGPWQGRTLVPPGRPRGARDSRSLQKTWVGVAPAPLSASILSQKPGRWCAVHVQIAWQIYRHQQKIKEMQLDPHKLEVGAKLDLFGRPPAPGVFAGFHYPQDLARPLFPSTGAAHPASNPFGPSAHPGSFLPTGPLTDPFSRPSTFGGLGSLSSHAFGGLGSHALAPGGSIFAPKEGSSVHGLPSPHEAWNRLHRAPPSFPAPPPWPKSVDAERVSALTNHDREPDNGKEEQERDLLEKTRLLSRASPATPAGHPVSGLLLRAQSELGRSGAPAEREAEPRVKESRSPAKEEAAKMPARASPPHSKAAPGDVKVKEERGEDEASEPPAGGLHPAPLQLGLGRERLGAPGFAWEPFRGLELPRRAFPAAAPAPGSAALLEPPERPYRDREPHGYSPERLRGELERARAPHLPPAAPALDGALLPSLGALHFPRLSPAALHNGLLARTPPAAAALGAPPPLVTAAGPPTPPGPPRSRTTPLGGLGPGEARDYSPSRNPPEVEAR
UniProt Q9HC44: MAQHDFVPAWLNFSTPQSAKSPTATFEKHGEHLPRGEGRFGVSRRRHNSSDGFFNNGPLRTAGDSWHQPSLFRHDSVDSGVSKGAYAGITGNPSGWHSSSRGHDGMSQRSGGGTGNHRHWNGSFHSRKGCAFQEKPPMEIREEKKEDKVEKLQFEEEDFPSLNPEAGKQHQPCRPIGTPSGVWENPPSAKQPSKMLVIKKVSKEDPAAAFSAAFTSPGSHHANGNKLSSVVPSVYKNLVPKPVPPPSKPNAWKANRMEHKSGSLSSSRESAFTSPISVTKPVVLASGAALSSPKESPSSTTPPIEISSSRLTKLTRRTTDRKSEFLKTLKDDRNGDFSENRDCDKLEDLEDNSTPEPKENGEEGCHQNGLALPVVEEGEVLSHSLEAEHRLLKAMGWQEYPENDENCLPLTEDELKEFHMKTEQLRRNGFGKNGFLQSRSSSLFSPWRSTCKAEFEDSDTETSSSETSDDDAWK
UniProt Q9H8K7: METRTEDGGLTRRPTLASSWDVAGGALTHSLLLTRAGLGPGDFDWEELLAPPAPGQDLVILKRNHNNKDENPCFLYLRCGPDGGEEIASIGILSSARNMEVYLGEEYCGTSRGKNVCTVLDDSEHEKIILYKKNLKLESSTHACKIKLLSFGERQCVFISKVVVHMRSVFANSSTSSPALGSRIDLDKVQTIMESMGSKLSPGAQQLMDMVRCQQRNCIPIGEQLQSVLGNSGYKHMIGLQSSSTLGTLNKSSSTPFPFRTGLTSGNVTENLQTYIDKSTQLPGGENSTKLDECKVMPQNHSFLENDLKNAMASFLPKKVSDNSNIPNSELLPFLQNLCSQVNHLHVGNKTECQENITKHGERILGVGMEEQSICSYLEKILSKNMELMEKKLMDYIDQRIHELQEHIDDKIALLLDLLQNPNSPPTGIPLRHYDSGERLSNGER
UniProt Q9NPA3, whole entry: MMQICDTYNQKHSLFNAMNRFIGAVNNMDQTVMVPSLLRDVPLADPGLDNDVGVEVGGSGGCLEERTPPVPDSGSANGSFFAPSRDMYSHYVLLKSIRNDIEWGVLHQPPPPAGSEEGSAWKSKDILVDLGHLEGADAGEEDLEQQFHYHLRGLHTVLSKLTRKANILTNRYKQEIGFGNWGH
UniProt Q9H765, whole entry: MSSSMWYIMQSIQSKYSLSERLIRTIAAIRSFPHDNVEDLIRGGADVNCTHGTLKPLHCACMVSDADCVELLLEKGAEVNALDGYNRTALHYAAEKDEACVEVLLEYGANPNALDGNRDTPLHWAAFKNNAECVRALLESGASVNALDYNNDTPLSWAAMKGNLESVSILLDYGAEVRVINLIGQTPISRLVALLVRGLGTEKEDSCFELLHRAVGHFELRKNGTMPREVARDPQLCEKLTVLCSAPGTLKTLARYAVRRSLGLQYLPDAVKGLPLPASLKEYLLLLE
UniProt Q9H9H4: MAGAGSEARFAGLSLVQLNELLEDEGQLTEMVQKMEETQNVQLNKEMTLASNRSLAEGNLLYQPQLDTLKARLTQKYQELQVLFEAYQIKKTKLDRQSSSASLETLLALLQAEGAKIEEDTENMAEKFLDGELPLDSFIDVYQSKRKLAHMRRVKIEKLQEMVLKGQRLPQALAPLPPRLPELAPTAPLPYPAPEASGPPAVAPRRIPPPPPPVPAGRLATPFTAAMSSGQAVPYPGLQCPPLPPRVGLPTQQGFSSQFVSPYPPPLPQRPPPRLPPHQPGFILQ
UniProt Q9HB71, whole entry: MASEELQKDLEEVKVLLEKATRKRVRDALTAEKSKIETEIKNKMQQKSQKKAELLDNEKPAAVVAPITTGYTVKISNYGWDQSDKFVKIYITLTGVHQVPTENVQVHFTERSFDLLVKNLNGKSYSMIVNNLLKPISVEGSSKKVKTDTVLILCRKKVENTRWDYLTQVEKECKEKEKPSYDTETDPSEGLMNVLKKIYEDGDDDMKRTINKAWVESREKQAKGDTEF
UniProt Q9HA64: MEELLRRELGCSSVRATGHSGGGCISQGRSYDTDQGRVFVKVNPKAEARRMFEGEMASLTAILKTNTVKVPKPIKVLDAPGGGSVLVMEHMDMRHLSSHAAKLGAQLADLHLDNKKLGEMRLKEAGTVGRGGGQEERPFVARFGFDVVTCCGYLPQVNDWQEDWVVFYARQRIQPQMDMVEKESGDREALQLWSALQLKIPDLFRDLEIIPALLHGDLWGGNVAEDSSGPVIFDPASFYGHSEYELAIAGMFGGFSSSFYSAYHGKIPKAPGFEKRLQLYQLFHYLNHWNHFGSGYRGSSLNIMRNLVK

Target	log2 fold change
RANBP3 (peptide sequence: DTGQLYAALHHR, peptide start residue: 496) (UniProt Q9H6Z4)	0.544
ZNF552 (peptide sequence: YDSFSNHQGVHTR, peptide start residue: 252) (UniProt Q9H707)	0.359
DBNDD1 (peptide sequence: TRAEQSHEKQPLGDPER, peptide start residue: 125) (UniProt Q9H9R9)	0.24
PRKRIP1 (peptide sequence: QDYMDAMAEK, peptide start residue: 93) (UniProt Q9H875)	-0.322
UPF2 (peptide sequence: ISDVNCAVHLCSLFHQR, peptide start residue: 216) (UniProt Q9HAU5)	-0.149
TNRC6C (peptide sequence: QLAQALLVK, peptide start residue: 1205) (UniProt Q9HCJ0)	-0.293
JMJD4 (peptide sequence: WVTPAGRPDFDHLLR, peptide start residue: 117) (UniProt Q9H9V9)	0.207
SMARCAD1 (peptide sequence: KMANHPLLHR, peptide start residue: 780) (UniProt Q9H4L7)	0.93
MRPS30 (peptide sequence: QYENHIFVGSK, peptide start residue: 277) (UniProt Q9NP92)	-0.116
CENPJ (peptide sequence: IIELETEIEKFK, peptide start residue: 910) (UniProt Q9HC77)	0.868
UniProt Q9HCM7 (peptide sequence: KVPLQPSK, peptide start residue: 155)	0.394
GPBP1L1 (peptide sequence: NLVPKPVPPPSKPNAWK, peptide start residue: 237) (UniProt Q9HC44)	0.143
COG4 (peptide sequence: YLCLDKSVIELSR, peptide start residue: 161) (UniProt Q9H9E3)	0.425
RRAGC (peptide sequence: SCGHQTSASSLK, peptide start residue: 376) (UniProt Q9HB90)	0.18
ISG20L2 (peptide sequence: SGHSSVEDAQATMELYK, peptide start residue: 320) (UniProt Q9H9L3)	0.37
XPO5 (peptide sequence: MGFPSKTDSPSCEYSR, peptide start residue: 408) (UniProt Q9HAV4)	0.32
ELAC1 (peptide sequence: DLGVPPGPAYGK, peptide start residue: 207) (UniProt Q9H777)	0.313
L2HGDH (peptide sequence: LIQQEDIK, peptide start residue: 166) (UniProt Q9H9P8)	0.201
RMI1 (peptide sequence: SIFSVHCNVPLAHDFTNKEK, peptide start residue: 400) (UniProt Q9H9A7)	-0.976

Target	log2 fold change
WDR6 (peptide sequence: DGQLQPVLR, peptide start residue: 598) (UniProt Q9NNW5)	-0.253
UniProt Q9H8K7 (peptide sequence: HYDSGER, peptide start residue: 433)	-0.77
CHD8 (peptide sequence: CSTPLLHQQYTSR, peptide start residue: 1980) (UniProt Q9HCK8)	-0.434
UBE2T (peptide sequence: GVFKLEVIIPERYPFEPPQIR, peptide start residue: 49) (UniProt Q9NPD8)	0.198
UniProt Q9NPA3 (peptide sequence: QEIGFGNWGH, peptide start residue: 174)	-0.213
ACTR8 (peptide sequence: TQAEKGDTENGKEK, peptide start residue: 2) (UniProt Q9H981)	-1.13
CBX8 (peptide sequence: HGSGPPSSGGGLYR, peptide start residue: 309) (UniProt Q9HC52)	-0.384
BRD9 (peptide sequence: HLDDEERR, peptide start residue: 79) (UniProt Q9H8M2)	0.659
EPB41L1 (peptide sequence: KKIEPEAVLQTR, peptide start residue: 709) (UniProt Q9H4G0)	-0.314
UniProt Q9H765 (peptide sequence: EVARDPQLCEK, peptide start residue: 229)	-0.415
UniProt Q9NQB0 (peptide sequence: QLHMQLYPGWSAR, peptide start residue: 357)	-0.158
VPS37B (peptide sequence: YQELQVLFEAYQIKK, peptide start residue: 77) (UniProt Q9H9H4)	0.398
GPN2 (peptide sequence: LTAVHLVDSHYCTDPAK, peptide start residue: 138) (UniProt Q9H9Y4)	0.171
UniProt Q9HAF1 (peptide sequence: RKQELAETLANLER, peptide start residue: 25)	0.347
IFT122 (peptide sequence: KLDSPGYAAETYLK, peptide start residue: 817) (UniProt Q9HBG6)	0.341
CACYBP (peptide sequence: KIYEDGDDDMKR, peptide start residue: 197) (UniProt Q9HB71)	-0.115
FN3KRP (peptide sequence: SYDTDQGR, peptide start residue: 30) (UniProt Q9HA64)	-0.376
UniProt Q9HCM1 (peptide sequence: HLSMEVPQSR, peptide start residue: 300)	0.941

Some values from the entries so far:
log2 fold change with IFT122 (peptide sequence: KLDSPGYAAETYLK, peptide start residue: 817) (UniProt Q9HBG6) is entered as 0.341
log2 fold change with UniProt Q9H765 (peptide sequence: EVARDPQLCEK, peptide start residue: 229) is entered as -0.415

From the supplement of paper PMC12819154, “High-throughput peptide-centric local stability assay extends protein–ligand identification to membrane proteins, tissues and bacteria” (Nature Structural & Molecular Biology, 2025)
